These are yes or no findings as the source states them, for the method shown. Binding seen in cells or lysates may run through a third protein. Some results given as binding are weak or reduced against the parent protein; the word gives no strength.
Columns and labels:
[1] = molecular target: SETD2 (SET domain containing 2), from SETD2 expression plasmid (UniProt Q9BYW2); assay: co-IP; PLC/PRF/5 cells co-transfected with SETD2 and PPM1A plasmids, with TGF-β1 treatment
[2] = molecular target: SETD2 (SET domain containing 2), from SETD2 expression plasmid (UniProt Q9BYW2); assay: co-IP; MALAT1 depleted or control PLC/PRF/5 cells transfected with flag-Smad2/3, PPM1A or SETD2 plasmids as indicated in the panels, TGF-β1 for 1-2 hours; IP and Western blotting
[3] = molecular target: SETD2 (SET domain containing 2), from SETD2 expression plasmid (UniProt Q9BYW2); assay: co-IP; PLC/PRF/5 cells co-transfected with SETD2 and PPM1A plasmids, without TGF-β1 treatment

Sequences of proteins named here, by UniProt entry; tags and fusion partners are left off.
UniProt Q9BYW2: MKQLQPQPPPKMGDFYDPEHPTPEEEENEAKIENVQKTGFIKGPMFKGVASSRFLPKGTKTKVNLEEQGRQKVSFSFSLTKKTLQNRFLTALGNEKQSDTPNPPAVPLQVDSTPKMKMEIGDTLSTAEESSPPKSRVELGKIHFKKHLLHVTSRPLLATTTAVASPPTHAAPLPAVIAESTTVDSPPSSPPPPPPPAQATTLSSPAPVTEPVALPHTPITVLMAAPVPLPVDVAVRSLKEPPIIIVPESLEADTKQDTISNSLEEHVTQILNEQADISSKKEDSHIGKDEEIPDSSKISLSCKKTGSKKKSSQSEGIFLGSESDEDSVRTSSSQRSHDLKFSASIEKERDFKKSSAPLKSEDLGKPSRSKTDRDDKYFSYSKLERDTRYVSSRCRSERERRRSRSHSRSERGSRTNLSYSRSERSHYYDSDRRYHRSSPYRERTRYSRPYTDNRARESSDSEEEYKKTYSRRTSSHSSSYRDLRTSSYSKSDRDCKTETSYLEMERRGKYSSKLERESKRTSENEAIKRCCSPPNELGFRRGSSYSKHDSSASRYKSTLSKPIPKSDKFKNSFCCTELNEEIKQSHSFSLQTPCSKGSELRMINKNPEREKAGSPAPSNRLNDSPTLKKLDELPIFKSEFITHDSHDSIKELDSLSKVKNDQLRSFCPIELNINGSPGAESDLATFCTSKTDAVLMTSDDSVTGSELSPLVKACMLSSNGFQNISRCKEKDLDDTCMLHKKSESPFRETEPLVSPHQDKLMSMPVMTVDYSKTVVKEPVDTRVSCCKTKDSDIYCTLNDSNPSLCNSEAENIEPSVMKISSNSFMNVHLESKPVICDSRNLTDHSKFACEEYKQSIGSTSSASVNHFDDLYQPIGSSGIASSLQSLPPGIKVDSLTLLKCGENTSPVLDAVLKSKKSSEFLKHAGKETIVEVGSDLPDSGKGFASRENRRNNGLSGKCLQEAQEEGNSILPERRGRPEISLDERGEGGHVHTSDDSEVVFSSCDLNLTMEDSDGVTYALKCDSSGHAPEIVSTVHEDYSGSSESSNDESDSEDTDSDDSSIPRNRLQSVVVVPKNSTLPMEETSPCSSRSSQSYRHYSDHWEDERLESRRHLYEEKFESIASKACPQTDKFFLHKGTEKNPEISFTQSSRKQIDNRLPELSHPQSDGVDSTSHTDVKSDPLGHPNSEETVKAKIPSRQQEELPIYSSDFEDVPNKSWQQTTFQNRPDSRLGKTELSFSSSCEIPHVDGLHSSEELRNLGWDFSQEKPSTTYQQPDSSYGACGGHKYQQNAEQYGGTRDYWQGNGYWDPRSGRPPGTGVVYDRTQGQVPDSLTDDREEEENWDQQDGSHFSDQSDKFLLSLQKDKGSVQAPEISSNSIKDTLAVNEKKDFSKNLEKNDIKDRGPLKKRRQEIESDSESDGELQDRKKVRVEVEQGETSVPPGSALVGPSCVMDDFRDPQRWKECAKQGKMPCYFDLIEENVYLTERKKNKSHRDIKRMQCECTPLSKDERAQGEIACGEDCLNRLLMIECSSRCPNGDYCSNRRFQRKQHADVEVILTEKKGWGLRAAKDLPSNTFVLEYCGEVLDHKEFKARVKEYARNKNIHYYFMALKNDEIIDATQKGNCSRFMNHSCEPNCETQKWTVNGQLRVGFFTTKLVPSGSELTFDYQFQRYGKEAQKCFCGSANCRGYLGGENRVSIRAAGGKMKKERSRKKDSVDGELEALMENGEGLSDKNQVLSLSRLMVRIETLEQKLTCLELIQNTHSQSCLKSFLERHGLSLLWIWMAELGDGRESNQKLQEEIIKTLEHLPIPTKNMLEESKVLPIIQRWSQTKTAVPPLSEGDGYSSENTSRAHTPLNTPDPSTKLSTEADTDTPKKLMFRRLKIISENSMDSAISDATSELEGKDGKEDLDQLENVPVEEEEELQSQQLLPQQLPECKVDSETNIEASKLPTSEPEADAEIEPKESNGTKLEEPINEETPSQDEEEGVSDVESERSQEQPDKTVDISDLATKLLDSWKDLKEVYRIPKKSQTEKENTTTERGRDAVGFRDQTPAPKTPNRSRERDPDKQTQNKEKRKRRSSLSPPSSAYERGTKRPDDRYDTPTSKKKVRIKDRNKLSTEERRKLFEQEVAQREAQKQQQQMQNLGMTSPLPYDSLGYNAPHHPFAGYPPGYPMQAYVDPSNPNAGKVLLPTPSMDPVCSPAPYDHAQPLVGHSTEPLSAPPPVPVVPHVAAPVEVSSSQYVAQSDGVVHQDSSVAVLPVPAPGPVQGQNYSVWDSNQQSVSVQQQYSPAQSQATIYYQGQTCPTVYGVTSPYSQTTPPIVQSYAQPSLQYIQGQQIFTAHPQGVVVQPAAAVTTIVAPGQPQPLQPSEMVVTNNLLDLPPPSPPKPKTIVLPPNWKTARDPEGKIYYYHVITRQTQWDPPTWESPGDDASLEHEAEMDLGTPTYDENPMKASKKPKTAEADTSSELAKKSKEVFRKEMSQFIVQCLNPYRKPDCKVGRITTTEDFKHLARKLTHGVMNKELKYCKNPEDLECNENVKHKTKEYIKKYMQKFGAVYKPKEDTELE

binding [1]: binds
binding [2]: binds
B1: PPM1A (protein phosphatase, Mg2+/Mn2+ dependent, 1A), from PPM1A expression plasmid (enzyme, UniProt P35813 1-382)
chain: MGAFLDKPKMEKHNAQGQGNGLRYGLSSMQGWRVEMEDAHTAVIGLPSGLESWSFFAVYDGHAGSQVAKYCCEHLLDHITNNQDFKGSAGAPSVENVKNGIRTGFLEIDEHMRVMSEKKHGADRSGSTAVGVLISPQHTYFINCGDSRGLLCRNRKVHFFTQDHKPSNPLEKERIQNAGGSVMIQRVNGSLAVSRALGDFDYKCVHGKGPTEQLVSPEPEVHDIERSEEDDQFIILACDGIWDVMGNEELCDFVRSRLEVTDDLEKVCNEVVDTCLYKGSRDNMSVILICFPNAPKVSPEAVKKEAELDKYLECRVEEIIKKQGEGVPDLVHVMRTLASENIPSLPPGGELASKRNVIEAVYNRLNPYKNDDTDSTSTDDMW
binding [3]: no binding (condition: without TGF-β1 treatment)

From article PMC6988980
